Data taken from publication PMC3983041, “Interplay of the Serine/Threonine-Kinase StkP and the Paralogs DivIVA and GpsB in Pneumococcal Cell Elongation and Division” (PLoS Genetics, 2014).
No constants are given. Whether binding was seen depends on the method and setting. Some entries that bind do so weakly or less than the wild type. Where a sequence is shown, tags or fusion partners need not be part of it. Blank lines part the entries; values can stand above or below the molecule they belong to.

Amino acid sequences for entries named in this document (tags omitted).
UniProt A0A0H2ZNE0: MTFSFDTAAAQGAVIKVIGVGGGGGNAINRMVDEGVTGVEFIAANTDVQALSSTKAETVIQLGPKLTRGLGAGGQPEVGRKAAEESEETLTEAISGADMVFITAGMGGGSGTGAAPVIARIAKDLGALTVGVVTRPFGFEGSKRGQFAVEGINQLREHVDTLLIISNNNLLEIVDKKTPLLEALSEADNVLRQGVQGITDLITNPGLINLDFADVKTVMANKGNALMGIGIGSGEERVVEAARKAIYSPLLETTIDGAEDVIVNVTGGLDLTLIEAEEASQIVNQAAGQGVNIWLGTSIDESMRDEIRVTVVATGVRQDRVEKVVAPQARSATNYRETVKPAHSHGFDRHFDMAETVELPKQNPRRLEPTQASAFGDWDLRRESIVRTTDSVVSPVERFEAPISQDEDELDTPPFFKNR

Legend:
[1] = target: T1, EzrA (bacterial two-hybrid fusion) (Streptococcus pneumoniae) (UniProt Q8DQE5); assay: two-hybrid; bacterial two-hybrid (adenylate cyclase T18/T25 fragments fused to the C-terminus), co-transformation in E. coli BTH101, 40 h at 30°C on LB-agar with X-gal and 0.5 mM IPTG; blue coloration indicates positive interactions
T1 sequence: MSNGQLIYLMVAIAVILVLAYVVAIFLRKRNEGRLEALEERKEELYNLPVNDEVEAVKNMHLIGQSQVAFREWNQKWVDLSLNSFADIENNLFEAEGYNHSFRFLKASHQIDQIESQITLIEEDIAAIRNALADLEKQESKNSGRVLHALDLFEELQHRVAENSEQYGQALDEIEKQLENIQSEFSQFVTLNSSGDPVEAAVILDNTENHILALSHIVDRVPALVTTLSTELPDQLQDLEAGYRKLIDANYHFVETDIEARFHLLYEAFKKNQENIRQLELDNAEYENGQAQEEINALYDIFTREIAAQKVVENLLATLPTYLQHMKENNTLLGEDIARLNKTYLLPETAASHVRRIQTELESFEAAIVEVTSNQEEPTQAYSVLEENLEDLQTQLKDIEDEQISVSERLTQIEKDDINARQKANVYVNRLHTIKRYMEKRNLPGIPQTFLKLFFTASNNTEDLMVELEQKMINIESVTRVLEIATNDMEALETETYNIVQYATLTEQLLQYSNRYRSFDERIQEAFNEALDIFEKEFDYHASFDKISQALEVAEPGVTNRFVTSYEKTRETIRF

[2] = target: T2, GpsB (bacterial two-hybrid fusion) (Streptococcus pneumoniae) (UniProt C1CIN3); assay: as above
T2 sequence: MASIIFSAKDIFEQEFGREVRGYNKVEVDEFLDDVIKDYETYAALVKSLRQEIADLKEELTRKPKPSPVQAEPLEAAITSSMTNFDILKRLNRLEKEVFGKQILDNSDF

binding [1]: binds
Molecule: FtsZ (bacterial two-hybrid fusion) (from UniProt A0A0H2ZNE0 1-419)

binding [1]: binds | binding [2]: binds
B1: DivIVA (bacterial two-hybrid fusion) (protein, UniProt Q8CWP9 1-262)
chain: MPITSLEIKDKTFGTRFRGFDPEEVDEFLDIVVRDYEDLVRANHDKNLRIKSLEERLSYFDEIKDSLSQSVLIAQDTAERVKQAAHERSNNIIHQAEQDAQRLLEEAKYKANEILRQATDNAKKVAVETEELKNKSRVFHQRLKSTIESQLAIVESSDWEDILRPTATYLQTSDEAFKEVVSEVLGEPIPAPIEEEPIDMTRQFSQAEMEELQARIEVADKELSEFEAQIKQEVETPTPVVSPQVEEEPLLIQLAQCMKNQK

binding [1]: binds
B2: GpsB (bacterial two-hybrid fusion) (protein, UniProt C1CIN3 1-109)
chain: T2 sequence
